PubChem BioAssay AID1259254 – NCATS, 2017

Test: 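Finding genes that stop cells copying their DNA twice in one cycle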 (primary screen)
System: human HCT116 colorectal cancer cells
Reagent: single siRNA against human genes
Time to read-out: 3 days
Measured: 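Nuclei stained with Hoechst and imaged; cell-cycle phase assigned by DNA content; G2 share scaled per plate, non-targeting siRNA 0%, GMNN siRNA 100%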
Direction: G2 robust z-score and G2 cells, % of GMNN control: higher = more G2 cells, more excess DNA replication; raw share of cells in G2: higher = larger share of cells with G2 DNA content
Call rule: 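Active siRNAs have a G2 robust z of 5 or more median absolute deviations over the median, which in these data means about 38% or higher of GMNN control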
In all, the deposit lists about 59,000 reagents; this is a part drawn at random. About 1,550 of them (2.6%) count as active. 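G2 share is only a proxy for re-replication; each gene was hit by three separate siRNAs, and active genes were retested.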 The raw values are shown without normalisation. The numbers tell different reagents against one gene apart. Not stated in the record: the amount of reagent.

gene	reagent no.	G2 robust z-score	G2 cells, % of GMNN control	raw share of cells in G2 (%)	Call
GPRC5A	1	0.289	5	7.63	inactive
GPRC5A	2	-1.38	-6.77	2.15	inactive
GPRC5A	3	-0.14	1.98	3.88	inactive
DAPP1	1	-0.328	0.663	3.46	inactive
DAPP1	2	-1.01	-4.16	2.27	inactive
DAPP1	3	1.05	10.3	8.46	inactive
NINJ2	1	3.06	24.5	11.3	inactive
NINJ2	2	2.49	20.5	13.3	inactive
NINJ2	3	3.65	28.6	16.8	inactive
GOLGA4	1	-0.737	-2.22	4.26	inactive
GOLGA4	2	-0.219	1.43	4.61	inactive
GOLGA4	3	-0.359	0.442	3.7	inactive
NRG2	1	-0.981	-3.93	3.55	inactive
NRG2	2	0.036	3.22	5.29	inactive
NRG2	3	0.0584	3.38	4.63	inactive
JAK2	1	0.046	3.29	6.69	inactive
JAK2	2	1.23	11.7	9.34	inactive
JAK2	3	-1	-4.1	2.58	inactive
SULF1	1	-0.522	-0.704	6.09	inactive
SULF1	2	-0.907	-3.41	3.01	inactive
SULF1	3	-0.536	-0.806	3.59	inactive
SEPTIN12	1	-0.778	-2.5	3.89	inactive
SEPTIN12	2	0.969	9.79	8.18	inactive
SEPTIN12	3	2.23	18.6	14.3	inactive
BTAF1	1	0.283	4.96	6.48	inactive
BTAF1	2	1.06	10.4	9.27	inactive
BTAF1	3	-0.38	0.295	5.37	inactive
DNAAF6	1	1.68	14.8	9.76	inactive
DNAAF6	2	0.277	4.92	4.66	inactive
DNAAF6	3	1.39	12.7	7.19	inactive
XRRA1	1	-0.803	-2.68	2.93	inactive
XRRA1	2	4.41	34	13.4	inactive
XRRA1	3	-0.571	-1.05	2.7	inactive
TOR4A	1	4.7	36	16.5	inactive
TOR4A	2	0.602	7.21	7.31	inactive
TOR4A	3	1.4	12.8	7.43	inactive
FAU	1	3.92	30.5	15.5	inactive
FAU	2	6.94	51.8	29.6	active
FAU	3	0.676	7.73	6.92	inactive
OR5T1	1	0.249	4.72	6.66	inactive
OR5T1	2	0.749	8.24	6.6	inactive
OR5T1	3	2.02	17.1	10.9	inactive
SYCE1	1	-0.198	1.58	2.28	inactive
SYCE1	2	0.12	3.81	5.62	inactive
SYCE1	3	-0.157	1.86	3.88	inactive
PIK3R4	1	-0.741	-2.25	4.86	inactive
PIK3R4	2	-0.917	-3.49	4.24	inactive
PIK3R4	3	-0.301	0.849	4.32	inactive
DDX60L	1	-0.0659	2.5	5.15	inactive
DDX60L	2	2.49	20.5	9.43	inactive
DDX60L	3	0.523	6.65	5.03	inactive
ZNF329	1	-0.346	0.536	2.98	inactive
ZNF329	2	-0.546	-0.873	5.51	inactive
ZNF329	3	0.758	8.3	6.24	inactive
INHA	1	-1.08	-4.65	3.35	inactive
INHA	2	-1.71	-9.08	2.23	inactive
INHA	3	-0.64	-1.54	3.64	inactive
POGLUT2	1	0.113	3.77	6.22	inactive
POGLUT2	2	2.13	18	12.7	inactive
POGLUT2	3	1.77	15.4	6.77	inactive
CSPG4P5	1	0.134	3.91	5.66	inactive
CSPG4P5	2	-0.421	0.00465	3.33	inactive
CSPG4P5	3	-0.0608	2.54	2.56	inactive
EMP2	1	-0.646	-1.57	4.56	inactive
EMP2	2	-0.444	-0.154	4.03	inactive
EMP2	3	0.0432	3.27	4.8	inactive
LCN2	1	-0.807	-2.71	4.4	inactive
LCN2	2	-1.18	-5.36	3.29	inactive
LCN2	3	-1.29	-6.11	1.18	inactive
FAM110C	1	-0.879	-3.22	2.02	inactive
FAM110C	2	-0.792	-2.6	2.62	inactive
FAM110C	3	0.239	4.65	5.18	inactive
UBE2E3	1	0.032	3.19	7.08	inactive
UBE2E3	2	-0.686	-1.86	5.74	inactive
UBE2E3	3	1.29	12.1	7.74	inactive
KCNK5	1	-0.678	-1.8	4.63	inactive
KCNK5	2	-0.109	2.2	5.53	inactive
KCNK5	3	0.393	5.74	6.61	inactive
FIZ1	1	0.279	4.93	4.53	inactive
FIZ1	2	1.39	12.8	11.7	inactive
FIZ1	3	-0.64	-1.54	3.15	inactive
APBB3	1	-0.12	2.12	6.62	inactive
APBB3	2	-0.227	1.37	4.29	inactive
APBB3	3	-1.46	-7.29	3.61	inactive
RAB3IP	1	6.26	47	25.1	active
RAB3IP	2	-1.26	-5.91	2.93	inactive
RAB3IP	3	0.53	6.7	7.01	inactive

Called active, among the entries above:
gene	reagent no.	G2 robust z-score	G2 cells, % of GMNN control	raw share of cells in G2 (%)	Call
FAU	2	6.94	51.8	29.6	active
RAB3IP	1	6.26	47	25.1	active
